Reference: patent US20180244758A1
These are yes or no findings as the source states them, for the method shown. Some results given as binding are weak or reduced against the parent protein; the word gives no strength.

Protein sequences, listed by entry. Tags and fused reporters are not part of them. Residues count along the entry.
UniProt Q66799, residues 34-638: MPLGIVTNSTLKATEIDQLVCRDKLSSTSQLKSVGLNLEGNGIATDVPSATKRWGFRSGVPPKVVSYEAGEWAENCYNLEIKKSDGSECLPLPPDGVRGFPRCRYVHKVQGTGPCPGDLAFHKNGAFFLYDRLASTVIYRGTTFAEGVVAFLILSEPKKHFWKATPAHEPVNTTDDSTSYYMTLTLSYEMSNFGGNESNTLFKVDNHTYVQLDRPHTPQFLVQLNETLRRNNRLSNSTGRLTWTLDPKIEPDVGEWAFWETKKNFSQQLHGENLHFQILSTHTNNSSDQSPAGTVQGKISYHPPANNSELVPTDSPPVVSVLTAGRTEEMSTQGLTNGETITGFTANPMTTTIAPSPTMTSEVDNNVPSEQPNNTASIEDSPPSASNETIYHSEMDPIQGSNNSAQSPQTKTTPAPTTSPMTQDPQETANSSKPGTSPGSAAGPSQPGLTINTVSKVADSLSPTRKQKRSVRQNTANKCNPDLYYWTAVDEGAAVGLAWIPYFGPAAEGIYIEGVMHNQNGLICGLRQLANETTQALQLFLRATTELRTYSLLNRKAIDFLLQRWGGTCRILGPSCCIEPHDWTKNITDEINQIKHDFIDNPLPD
UniProt Q05320, residues 33-637: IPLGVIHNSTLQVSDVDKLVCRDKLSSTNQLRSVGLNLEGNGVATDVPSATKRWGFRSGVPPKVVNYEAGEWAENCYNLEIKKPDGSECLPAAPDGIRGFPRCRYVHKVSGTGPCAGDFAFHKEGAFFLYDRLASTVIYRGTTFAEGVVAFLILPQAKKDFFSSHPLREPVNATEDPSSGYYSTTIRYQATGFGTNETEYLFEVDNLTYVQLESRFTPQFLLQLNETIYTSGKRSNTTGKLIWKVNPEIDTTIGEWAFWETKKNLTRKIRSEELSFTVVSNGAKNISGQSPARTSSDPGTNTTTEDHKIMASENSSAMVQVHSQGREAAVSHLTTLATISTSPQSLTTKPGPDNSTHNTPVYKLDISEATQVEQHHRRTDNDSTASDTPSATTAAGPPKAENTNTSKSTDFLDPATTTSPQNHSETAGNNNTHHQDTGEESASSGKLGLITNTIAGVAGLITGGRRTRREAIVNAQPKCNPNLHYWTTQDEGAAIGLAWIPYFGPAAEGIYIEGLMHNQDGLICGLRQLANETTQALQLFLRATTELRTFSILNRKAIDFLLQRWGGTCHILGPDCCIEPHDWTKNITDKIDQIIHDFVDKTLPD

B1: mAb PE-24 (antibody, V domains shown)
VH: EVQLVESGGGLVQPGGSLRLSCAASGFTFSSYAMSWVRQAPGKGLEWVSEISGLGGSTYYADSAKGRFTISRDNSKSTLYLQMNSLRAEDTAVYYCAKDHRVWAPGYYFDHWGQGTLVTVSS
VL: DIVLTQSPSTLSASVGDRVTITCRASQSISSWLAWYQQKPGKAPKLLIYDASSLESGVPSRFSGSGSGTEFTLTISSLQPDDFATYFCQQYNRSPTFGGGTKVEIK
B2: mAb PE-87 (antibody, V domains shown)
VH: QVQLVQSGVTLVQPGGSLRVSCAASGFTFSSYAMSWVRQAPGKGLEWVSAISGLGGSTYYADSVKGRFTISRDNSKNTLYLQMNSLRAEDTAVYYCAKDHRVWAAGYHFDYWGQGALVTVSS
VL: DIVLTQSPSTLSASVGDRVTITCRASQSISSWLAWYQQKPGEAPKLLISDASSLESGVPSRFSGSGSGTEFTLTISSLQPDDFATYYCQQYYSSPTFGGGTKVEIK
B3: mAb PE-16 (antibody, V domains shown)
VH: QVQLVQSGAEVTKPGASVKVSCKASGYTFTTYYMHWVRQAPGQGLEWVGIINPSGGITRYAQKFQGRVTLTRDTSTTTVYMELSSLRSEDTAVYYCARDRYPVLFATDYGMDVWGQGTTVTVSS
VL: DIVMTQSPATLSLSPGERATLSCRASQSVSGYLAWYQQKPGQAPRLLIYDASNRATGIPARFSGSGSGTDFTLTISSLEPEDFAVYYCQQRSIWPPGVTFGGGTKVEIK
B4: mAb PE-47 (antibody, V domains shown)
VH: EVQLVESGGGLVKPGGSLRLSCAASGFTFSNAWMSWVRQAPGEGLEWVGRIKSKTDGGTIDYAAPVKGRFTISRDDSKNTVYLQMTSLKTEDTAVYYCTTYTEDMQYFDWLLRGGETFDYWGQGTLVTVSS
VL: DIQMTQSPSSLSASVGDRVTITCRASQYISTYLNWYQQKPGKAPKLLIYAAYNLQSGVPSRFSGSGSGTDFTLTISSLQPEDFATYYCQQSYSTPGRYTFGQGTKVEIK

Experiments:
[1] = molecular target: RESTV GP (Reston virus (RESTV)) (UniProt Q66799); assay: ELISA, GP antigen coated, mAb at 0.2 µg/ml
[2] = molecular target: EBOV GP (Ebola virus (EBOV)) (UniProt Q05320); assay: ELISA, GP antigen coated, mAb at 0.2 µg/ml

Binder | binding [1] | binding [2]
B1 | binds | binds
B2 | binds | binds
B3 |  | binds
B4 |  | binds
